54 sequences from PMC7819943, “Rice protein-binding microarrays: a tool to detect cis-acting elements near promoter regions in rice” can be followed below.

This is one part of the list.

This assay deals with T1, OsSMF1 (Oryza sativa, UniProt Q6ZLB0 1-436).
T1 sequence: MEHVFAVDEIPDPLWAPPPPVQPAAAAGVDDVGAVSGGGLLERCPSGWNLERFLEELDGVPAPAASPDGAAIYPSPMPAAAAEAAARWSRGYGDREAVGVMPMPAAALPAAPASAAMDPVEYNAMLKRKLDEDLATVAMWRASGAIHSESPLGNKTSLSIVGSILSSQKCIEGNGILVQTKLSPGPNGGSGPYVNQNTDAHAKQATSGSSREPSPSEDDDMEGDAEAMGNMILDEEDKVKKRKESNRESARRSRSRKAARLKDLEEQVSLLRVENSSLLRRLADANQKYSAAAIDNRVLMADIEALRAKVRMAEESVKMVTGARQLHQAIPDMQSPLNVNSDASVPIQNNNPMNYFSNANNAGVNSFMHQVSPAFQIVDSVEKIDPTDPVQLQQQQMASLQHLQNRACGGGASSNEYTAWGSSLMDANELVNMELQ
The assay is described as follows: protein-binding microarray (RPBM); PBS, 2% BSA, 51.3 ng/ul salmon testes DNA, 50 uM zinc acetate, 200 nM TF, 25 C, 1 h; high values mean tight binding. Particulars: protein: recombinant; tags: N-terminal polyhistidine and DsRed monomer fusion (pET32a); chain copies: 2; label: CyDye5-dUTP incorporated in the synthesized complementary strand; 3' TTTTT single-stranded linker to array surface; dsDNA, one strand shown. Summed up: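 Per-feature fluorescence intensity (arbitrary units), read on an Axon 4000B scanner, is the binding signal. Transcription factors carrying an N-terminal polyhistidine tag and DsRed fusion were expressed in E. coli BL21-CodonPlus and purified on Ni–NTA. A custom Agilent array, made double-stranded by primer extension with Cy5-dUTP and blocked with 2% BSA, was incubated with 200 nM protein in PBS, 2% BSA, salmon testes DNA and 50 µM zinc acetate at 25 °C for 1 h and then washed.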
For “CGCGAAAGGCGTGAAACCAGTGCACGCATCACCCATCTCGCGGAGTCACCTAGTGCAG”, the binding signal is 3400 fluorescence intensity (a.u.).
The same measure for “TGGGGCCATTGCAAGAGACCCCACATGTCATTGGAATAGACGGAGTCACCTAGTGCAG”: 21700 fluorescence intensity (a.u.); for “ATTCTTTTACCGCGTTGATGAATCGGATTCGTTCCGGTTTCGGAGTCACCTAGTGCAG”: 3360 fluorescence intensity (a.u.); for “CGGTGCGAGGTACTACGTCAAGGCGTACGAGGCCAGGTACCGGAGTCACCTAGTGCAG”: 3140 fluorescence intensity (a.u.).
The same measure for “AGATTCCTCCCACGATCCTCCTATCGAACCTCCTCTCGCACGGAGTCACCTAGTGCAG”: 27100 fluorescence intensity (a.u.).
The same measure for “CTCCACACCTGACACCACGCGGGCTGCCTCCATCGTCATCCGGAGTCACCTAGTGCAG”: 6460 fluorescence intensity (a.u.); for “TTTCAGCCCATATATGATCCTCCTTCGGCCCATAATTTTGCGGAGTCACCTAGTGCAG”: 3760 fluorescence intensity (a.u.).
With “GAGCCCTCCGCCGCCGCCAGCTCGCCCTTCGCCGAGCCCACGGAGTCACCTAGTGCAG”, the binding signal was 3520 fluorescence intensity (a.u.).
The same measure for “TAATTTTCTTCCAAAATTCGTGTATTTCTAACTTTATTTACGGAGTCACCTAGTGCAG”: 29100 fluorescence intensity (a.u.); for “TTGAGGCGTGATACCTTGGCCTTCTCTGCCCGCCGATCTGCGGAGTCACCTAGTGCAG”: 3590 fluorescence intensity (a.u.).
The same measure for “GGTGATGATTGATGAAGCATATGATGTGTCGCTAAATGCTCGGAGTCACCTAGTGCAG”: 5520 fluorescence intensity (a.u.).
On to “AACATGTGTTCGTATATTCAATGTGACACGCAAGATCAATCGGAGTCACCTAGTGCAG”, for which the binding signal was 6950 fluorescence intensity (a.u.).
In the case of “TCACAAAATCCACCTGCCTCGTCAGACTGGTTTGTTGTCACGGAGTCACCTAGTGCAG”, the binding signal was 13700 fluorescence intensity (a.u.).
In the case of “CCCCTCTCTCTCTCTCTCTCTCTCTCTCTCTCTCTCTCTCCGGAGTCACCTAGTGCAG”, the binding signal is 20500 fluorescence intensity (a.u.).
As for “AGAGGAGCATCTTCTCGCCTGAGATTCCGTCGACGCCATTCGGAGTCACCTAGTGCAG”, the binding signal is 3540 fluorescence intensity (a.u.).
Next, “TAGTCAGTGACGTAATTTGTGCTGATTAAATTTAATTTCTCGGAGTCACCTAGTGCAG”: 4940 fluorescence intensity (a.u.); “TCTCTTCCACAGTGCATTGACAAATGGCTTCGGATGAGGACGGAGTCACCTAGTGCAG”: 3290 fluorescence intensity (a.u.).
The same measure for “CGCTGTCATTGCTCGACGTGTCGGAGAACAACCTCACCGGCGGAGTCACCTAGTGCAG”: 4060 fluorescence intensity (a.u.); for “AACATGTTTGTCAGCATTGACGTGAGCTCTAACTTCAACTCGGAGTCACCTAGTGCAG”: 4540 fluorescence intensity (a.u.).
Next, “TGCTTCGCCAGTGAATCGCGTGGATATAAATGGGCCTCTCCGGAGTCACCTAGTGCAG”: 3440 fluorescence intensity (a.u.); “CCTATTACGACGTCGCCGGCCACCAGCGCGCCTGCCCGCACGGAGTCACCTAGTGCAG”: 3210 fluorescence intensity (a.u.).
In the case of “GCAGGGATTAAGATTATACCTTTAATGACACCATACCTTTCGGAGTCACCTAGTGCAG”, the binding signal is 3360 fluorescence intensity (a.u.).
For the sequence “TTGCATCGTCGGCAGCAGCGGCTTACGTGTGCCGAAGCAGCGGAGTCACCTAGTGCAG”, the binding signal was 8300 fluorescence intensity (a.u.).
Next, “TGTCATTGGATCAGTACGCGTAGCTAAGTTATGTTGCAGTCGGAGTCACCTAGTGCAG”: 10600 fluorescence intensity (a.u.); “AAAAGAGTAAACTTGTCCTTGAAACCGACAAATTTCACACCGGAGTCACCTAGTGCAG”: 17000 fluorescence intensity (a.u.); “AAACTTAACAACTTGAGAGTTATTCATGATTTATATTCCCCGGAGTCACCTAGTGCAG”: 3280 fluorescence intensity (a.u.).
The same measure for “TCTATGATGAAGATGATTGTACGTTCACAACTAGTTACCTCGGAGTCACCTAGTGCAG”: 3440 fluorescence intensity (a.u.).
The same measure for “ATCTGGATCGATCAAGTCATCAAACGCCACAGATTTAGGACGGAGTCACCTAGTGCAG”: 3460 fluorescence intensity (a.u.); for “CATACGTTAAAGTTATCTAGTCAGCATGAAATCGTCGGCACGGAGTCACCTAGTGCAG”: 8740 fluorescence intensity (a.u.); for “AATGGTGCTTAAGCTAACTCACCAACACGTCTCCTTCCCGCGGAGTCACCTAGTGCAG”: 3970 fluorescence intensity (a.u.).
In the case of “CACTCCACCAGCGACACTTGACACGCACGCGCCACACGCCCGGAGTCACCTAGTGCAG”, the binding signal was 4480 fluorescence intensity (a.u.).
The same measure for “TCCAAGCGCTATCTTGGTGGAAGTTACCATGTCATCTTGCCGGAGTCACCTAGTGCAG”: 3430 fluorescence intensity (a.u.).
Next, “GGACCACCCTGCCGCGGACATCACCCATCTCGTCATCTCCCGGAGTCACCTAGTGCAG”: 4470 fluorescence intensity (a.u.); “ACGGGTGAGAAGTTGTGACACGTCAGAGATGACTCAACACCGGAGTCACCTAGTGCAG”: 13900 fluorescence intensity (a.u.); “GATATAGTATTTAAAACGTCCATTACACGTGCACGATTACCGGAGTCACCTAGTGCAG”: 4230 fluorescence intensity (a.u.).
“CGGCGGCGTCCACGACGACTCGTCCCTCGCGCACCGCCCGCGGAGTCACCTAGTGCAG”: the binding signal was 3660 fluorescence intensity (a.u.).
Next, “AAATAACTAGATCATATTACTCTTTCATGCAATAAACATCCGGAGTCACCTAGTGCAG”: 24800 fluorescence intensity (a.u.); “AGGTGGTTACGGTACGGCCTCATCTGACGTCAGATCCGGGCGGAGTCACCTAGTGCAG”: 15900 fluorescence intensity (a.u.); “TGTACAACATGGGCCTCAAGTACACCACGTCGACGGTGGCCGGAGTCACCTAGTGCAG”: 5920 fluorescence intensity (a.u.).
Next, “GCAAAACCTTCATGCTCATCGATATTACTCTTATCGCCAACGGAGTCACCTAGTGCAG”: 25200 fluorescence intensity (a.u.); “CGAGCACGCAAATTAATCGTGTGTCATCGGGCAACCACACCGGAGTCACCTAGTGCAG”: 7250 fluorescence intensity (a.u.); “TGTCCTTCTGCATGCATCCTCCACATCAGGCTAACCACCCCGGAGTCACCTAGTGCAG”: 5680 fluorescence intensity (a.u.).
Next, “TCCATGGCGCCACACGTCACCACCTTCTCACACCCTCGTCCGGAGTCACCTAGTGCAG”: 18400 fluorescence intensity (a.u.); “GATGGATCGGTTAGTCTTGTTAATTTCGTCATCAGCTTATCGGAGTCACCTAGTGCAG”: 3270 fluorescence intensity (a.u.).
For the sequence “CGTCTGGCCCTGCCACATGACATGCATGCGCCACGCACGACGGAGTCACCTAGTGCAG”, the binding signal was 5910 fluorescence intensity (a.u.).
The same measure for “TGTAAACATCCCATACTGGCTCTTACGCAAAACTTTCACCCGGAGTCACCTAGTGCAG”: 54100 fluorescence intensity (a.u.); for “CCGCACCCGAATCTCGCGGCGTCGCCTCGTCAGACCTCAGCGGAGTCACCTAGTGCAG”: 4400 fluorescence intensity (a.u.).
Next, “CCCTTCCGGCTTCCACGCGTCGGGAACCGAAGTCCAAACCCGGAGTCACCTAGTGCAG”: 3360 fluorescence intensity (a.u.); “TACTGACATGTGGACCTGATGATCTTTAGACCCACATGTCCGGAGTCACCTAGTGCAG”: 3470 fluorescence intensity (a.u.); “TCACTGCGTGCATGTATGTACGTGGATTGTCCAATTACAACGGAGTCACCTAGTGCAG”: 3300 fluorescence intensity (a.u.).
On to “ATATCTGCTTATGTCACTCATCTCATCTGCTAAATTTGGCCGGAGTCACCTAGTGCAG”, for which the binding signal was 7870 fluorescence intensity (a.u.).
Next, “AGTCAACAACAGGCGGGAGGAGGGGAGGAGGCGGAGGCAGCGGAGTCACCTAGTGCAG”: 4630 fluorescence intensity (a.u.); “CCTTTGTCGTCTCAGCACTTGCTGTTAATTGTATACCCCACGGAGTCACCTAGTGCAG”: 3350 fluorescence intensity (a.u.); “AGTCTATTGCTGAGATGTACATGTTTTATAGATAGCACCTCGGAGTCACCTAGTGCAG”: 3400 fluorescence intensity (a.u.).
